The supplement of paper PMC5949888
Most values lie at the floor of the assay. Slopes are relative: functional sequences can read slightly below zero.

system: Saccharomyces cerevisiae PS128 hsf1 delta, HSF1(1-493) fusion; experiment: growth estimate (transactivation domain function in HSF1 fusion, heat-shock survival) (a.u. (slope of normalised read count over time)); higher = stronger growth at 37°C, i.e. more transactivation activity; settings: library: random library
Protocol: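 Random 60-nt DNA library encoding peptides of up to 20 aa, fused to the C-terminus of yeast HSF1 residues 1-493 (C-terminal TAD deleted) and expressed from the native HSF1 promoter on a CEN plasmid in hsf1-deleted S. cerevisiae PS128. Cells were selected at 37°C on -trp 5-FOA plates for 0, 2, 4, 6 and 8 days and amplicons were sequenced. Growth estimate is the slope of a robust linear fit of total-sum-normalised read counts (normalised to the first time point) over time, using at least 2 replicates. Sequences are classed functional (TAD activity) above a threshold of -0.13, set from stop-codon control sequences.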

Row | Substance | growth estimate
1 | PVRPG | < -0.25
2 | EYYVCLQGSMDLSYATRSKT | < -0.25
3 | GRIKRNVSHPPPVKVSAHTP | < -0.25
4 | PLGIGCLASI | < -0.25
5 | RGYAS | 0.495
6 | RSSHGRVPVSLCLLEGY | < -0.25
7 | GSIYGRRGILCYCSGLIVES | < -0.25
8 | RDV | < -0.25
9 | SESDSAF | < -0.25
10 | FDRCVYCTC | < -0.25
11 | GLASGRNVLGYLG | < -0.25
12 | LIGSSVRAS | < -0.25
13 | LTISEVVAVTRAPNRSGCIR | < -0.25
14 | RTCFNAREANNGGSNAR | < -0.25
15 | ADELRHAGRRSFEL | < -0.25
16 | TQHTFGIPASKRIRGNQGRL | < -0.25
17 | TGAALVRGATSNYI | < -0.25
18 | TRRPLKFNELVESIYHRE | < -0.25
19 | SLTWYVLVSGCVSNSQYFVA | < -0.25
20 | TFCDSTSPCPHAKLPAEQYK | < -0.25
21 | AQF | < -0.25
22 | PNRCSGCACANHRRFQSYR | < -0.25
23 | LSGIRDVDAFARSPRV | < -0.25
24 | LPIWLGSLTNRASLVLPRPA | < -0.25

Row | Substance | growth estimate
25 | GEWFKRQRLALYRGVLIAGQ | -0.246
26 | CDWGVNSAKASRDARVCYGE | < -0.25
27 | VRNR | -0.246
28 | SSGPY | < -0.25
29 | RNVKDPAPTRAKFGPQTQ | < -0.25
30 | ASRLWRHIRVFGFLSRSAER | < -0.25
31 | LGGVTC | < -0.25
32 | TAGQHLVFPISP | < -0.25
33 | KESRVTQRKC | < -0.25
34 | RVGEGLTSARTDSAAQLPSA | < -0.25
35 | YGQGIRKSCGAFNKGRG | < -0.25
36 | FYCVQGGCGAEPLIARVLKG | < -0.25
37 | TVSINDWCGYVYDLDFCVLH | < -0.25
38 | QGRGWPCISKR | < -0.25
39 | LTYAISPARTIRTGH | < -0.25
40 | SAVFRLSRDVQSVR | < -0.25
41 | TGPVRKNGDFVHGSFE | -0.25
42 | QLEGPYAANVFKDGAQEKGQ | < -0.25
43 | FRMWCF | < -0.25
44 | VGTSSTARQNRQYDRGPVPS | < -0.25
45 | EKGL | < -0.25
46 | KLRTLRI | < -0.25
47 | IPDK | < -0.25
48 | TEGQCRAWT | < -0.25

Row | Substance | growth estimate
49 | GVGWIHRHSVIRFNRQDFDY | < -0.25
50 | VRSVGTPVPLDE | < -0.25
51 | NGCRRDFKHEPWALSHARGR | -0.246
52 | QLR | < -0.25
53 | GDGSAGPAN | < -0.25
54 | SMRRGNRGMWDVGTYHPPGR | < -0.25
55 | FSKPQALYNLVTDADEKCSV | -0.217
56 | HRY | < -0.25
57 | AVRCSVSRAGNVRVRTFSTR | < -0.25
58 | RTTVFVKAM | < -0.25
59 | TAPDVCPYYGCLAQSCDTAP | < -0.25
60 | PCVARFHGR | < -0.25
61 | RWDAFVSYGRYGEAFP | < -0.25
62 | RSIKTRFF | < -0.25
63 | MGRIMVVD | < -0.25
64 | GDRPPCEPDGRADAPRPVAF | < -0.25
65 | GVRRFDWWKVIHGAWRPNQL | < -0.25
66 | KGACLSIGVCCNGTSWDRHN | < -0.25
67 | YRSSVVIEFSLKSKGCSVYG | -0.246
68 | FTVSISAHLVAPGKAGRKHE | < -0.25
69 | ITHMANLSFVLIPRMSRRSG | < -0.25
70 | SKGNTATSEGFCLN | < -0.25
71 | AEKKKHAQGSDRRAFCKAG | < -0.25
72 | IGLGPNSRFRCSAAEAALTC | < -0.25

Random excerpt: 5 entries already listed.
Row | Substance | growth estimate
55 | FSKPQALYNLVTDADEKCSV | -0.217
51 | NGCRRDFKHEPWALSHARGR | -0.246
50 | VRSVGTPVPLDE | < -0.25
69 | ITHMANLSFVLIPRMSRRSG | < -0.25
56 | HRY | < -0.25

(cont.)

Row | Substance | growth estimate
73 | LLG | < -0.25
74 | LALGKLAWLSIGIRGSGSGR | < -0.25
75 | GIDRILMCRG | < -0.25
76 | TCDEG | < -0.25
77 | ECGDQCIHFCISKGRLEVFG | < -0.25
78 | PPDGMELGRQQECTLDQPLL | < -0.25
79 | VFIVSGTAAEYSQSSLI | < -0.25
80 | SDAPS | < -0.25
81 | TRYRNCQC | < -0.25
82 | WLPKGVPQRQRC | < -0.25
83 | RTISPHYSPCLEAVTHHVKA | -0.166
84 | SRQPWLC | < -0.25
85 | ILQRSNSRRLQTDKTRKVCF | < -0.25
86 | WTGSAWSVRGRFERDPTSTA | 0.0715
87 | VRVGTWERYSV | < -0.25
88 | PQDRTTAFELQVWFFDLRNR | < -0.25
89 | YCNFSMTTVQVGAGVPWNGL | < -0.25
90 | RLGDWGMCMLGLRLRENGFA | < -0.25
91 | EPVGPSGNIGSWARLMS | < -0.25
92 | VSVSEPSISRNRDNNGLVCQ | < -0.25
93 | GDLARARAFNQVEEFRYHKR | < -0.25
94 | TPSHRPA | < -0.25
95 | RKCSWCYCGSCL | < -0.25
96 | AAMTSQQELRAN | < -0.25

Row | Substance | growth estimate
97 | IGTNARRLSKRSTRLTDRML | < -0.25
98 | LGMSSFDSIVRAEPVKR | < -0.25
99 | KRALCMFKPKASNGPALSED | < -0.25
100 | SRGPCSLVIPLTAAAF | < -0.25
101 | VIAARIYT | < -0.25
102 | LCALRSLIHTLTRSNRAMPE | < -0.25
103 | GFEIRKTGTHDAPVASLRVP | < -0.25
104 | YVRDFYLRSESFRDGVGYRL | < -0.25
105 | VPYR | < -0.25
106 | AADFGLRTG | < -0.25
107 | PGLTKDSQSEVVPPTGGPGL | < -0.25
108 | DRTLYYFTSDESGIRWRIDS | < -0.25
109 | SVVIRTILLASGILVTPVSR | < -0.25
110 | SVESLKSPSQYRVLDSVGTL | < -0.25
111 | LRCCG | < -0.25
112 | TRRRMGSSSTGDSDSSERSR | < -0.25
113 | DPG | < -0.25
114 | VRVLY | < -0.25
115 | GTLIRSQSTPGCALD | < -0.25
116 | WKG | < -0.25
117 | YDSRSYGVLAILAR | < -0.25
118 | KGGAVQNLGGSGNDLRLGSR | < -0.25
119 | RCT | < -0.25
120 | YVWWIETGGLSGWVLGENLL | < -0.25

A few values from the entries so far.
LRCCG | growth estimate: < -0.25
AADFGLRTG | growth estimate: < -0.25
LCALRSLIHTLTRSNRAMPE | growth estimate: < -0.25
SVVIRTILLASGILVTPVSR | growth estimate: < -0.25
YVRDFYLRSESFRDGVGYRL | growth estimate: < -0.25

Continued.

Row | Substance | growth estimate
121 | SNPSSCGLGVGPALVG | < -0.25
122 | RTYWPVKATG | < -0.25
123 | ERFLPLDRS | < -0.25
124 | IIHRKQSQGV | < -0.25
125 | IAVCSGRRIDEYRRTGLYCT | < -0.25
126 | DAQSISAHRLHNPG | -0.245
127 | GRRDVVFPPHFRHLIK | < -0.25
128 | CRSGARKAAGDCV | < -0.25
129 | QARECTGSYCIRAATDRKTH | < -0.25
130 | KVSAGGVCHPACNIGPAFQG | < -0.25
131 | VKGECGPA | -0.246
132 | ERFRDRGNVALLWVADRYDR | < -0.25
133 | SLQTKLR | < -0.25
134 | PRVDTMPRSSDKVMGQAGSM | < -0.25
135 | LRGLGRPCVEFQLSRLVLFE | < -0.25
136 | LSRSS | < -0.25
137 | LDTVASWSRLLISLRIANAS | < -0.25
138 | GGVSSGGEICIRRFCFKSLI | < -0.25
139 | PCSALYTSSRVSQEINFFNP | < -0.25
140 | TYESGC | < -0.25
141 | PDLSVITLEMRSQSLGTLRP | < -0.25
142 | TTGFYVMCTIQPV | < -0.25
143 | PNLVPLLLPTRIAVHFTSSA | < -0.25
144 | KLNWVSSEVEA | < -0.25

From entry 55 to 56, copied from above:
Row | Substance | growth estimate
55 | FSKPQALYNLVTDADEKCSV | -0.217
56 | HRY | < -0.25

(listing goes on)

Row | Substance | growth estimate
145 | YLHYRWPCKVDTMVVNAG | < -0.25
146 | ILCEGSSGLG | < -0.25
147 | RHRSSGCPDAPEGWLFGAKG | < -0.25
148 | IMENLRG | < -0.25
149 | SPQIRCDALPYGLGRHVAHG | -0.245
150 | LVEVPS | < -0.25
151 | SLSADLEHQMARGRQLPCCL | < -0.25
152 | GRQPTNVSLVGINLHASALA | < -0.25
153 | VLQVVACFRERTQSLTALPS | < -0.25
154 | RIAANSGPWWGPKVSFVSVL | < -0.25
155 | NNCGSILIHVGHSHAAFHRV | < -0.25
156 | RGS | < -0.25
157 | TVWNAVTSHA | < -0.25
158 | RRLSSARVYPSAGRPP | < -0.25
159 | KVGGARCSHKQAP | < -0.25
160 | LRFFRPARA | < -0.25
161 | IPTSSGVPADTSFKGRAFSL | < -0.25
162 | LSVILRWVRLH | < -0.25
163 | AWIV | < -0.25
164 | QHG | < -0.25
165 | AWWVGRDASELMAWARGITG | < -0.25
166 | LCEAMKCQNLRTGVTFNPRH | < -0.25
167 | MNVHSMKVARFLYRGNPVAL | < -0.25
168 | QLARDSAARLADSWII | < -0.25

Row | Substance | growth estimate
169 | GSTSNR | < -0.25
170 | WNVFIASRLFSAGNSS | < -0.25
171 | GWRPSSTYGCCAPLSGIGAL | < -0.25
172 | REEICILTNCLTIYYMISVQ | < -0.25
173 | QDNFSVIVSHFYCLAFVIPQ | < -0.25
174 | YSLPAGKCLTLTFHRYKSFS | < -0.25
175 | VGPAEYLKSLCLHRRRVSIS | < -0.25
176 | LHVG | < -0.25
177 | KMLG | < -0.25
178 | SGPLS | < -0.25
179 | CYFEEAPLFMDWQVW | < -0.25
180 | MRTPQMTIREICRLVQCLLV | < -0.25
181 | SSQTTRSSP | -0.245
182 | VPKHGFVDRYYLIVKC | < -0.25
183 | CEGVMCSFGAEDTTNIDWGQ | -0.123
184 | PWLIDLLESSRDYVEK | < -0.25
185 | TAVKWWISWWTSSREIVIAK | < -0.25
186 | NSCASENVDAGYAGQTAAAR | < -0.25
187 | PKGYQPINNTAAPLARLD | < -0.25
188 | VRPSRVAPRGRCVHVHSLIG | < -0.25
189 | MGGQMRFCPLWAQ | < -0.25
190 | CTLR | < -0.25
191 | EQGETEIDIGIFDKAVVPGE | < -0.25
